Experiment [1] in a line: Drosophila SCA1 whole organism dose response for polyglutamine toxicity reduction (AID 1595). The note with it: Drosophila SCA1 polyglutamine model, at 1 µM, stronger effect = higher value.
The nature of a further experiment: PubChem AID 1597. Conditions: Drosophila SCA1 polyglutamine model, at 1 µM, stronger effect = higher value.

SMILES strings stand for the structures. This is one part of the list. Measured potencies and affinities stand elsewhere. Entries without a call are filed as inconclusive in the source.

For `CCC(C)C(N)C1=NC(C(=O)NC(CC(C)C)C(=O)NC(CCC(=O)O)C(=O)NC(C(=O)NCCCCC2NC(=O)C(CC(N)=O)NC(=O)C(CC(=O)O)NC(=O)C(Cc3cnc[nH]3)NC(=O)C(Cc3ccccc3)NC(=O)C(C(C)CC)NC(=O)C(CCCN)NC2=O)C(C)CC)CS1` (stereo not given), the figures for the suppression of toxicity (in experiment [1]; in the experiment “PubChem AID 1597”) were 0 and 3.58, respectively.

Take `Nc1ccc(S(=O)(=O)Nc2ccnn2-c2ccccc2)cc1`: the figures for the suppression of toxicity (in experiment [1]; in the experiment “PubChem AID 1597”) were 5.71 and 12.1, respectively.

`Cc1ccc(-c2cc(C(F)(F)F)nn2-c2ccc(S(N)(=O)=O)cc2)cc1`: the suppression of toxicity came to 2.85 in experiment [1] and 12.1 in “PubChem AID 1597”.

With `Cc1ccccc1N1C(=O)c2cc(S(N)(=O)=O)c(Cl)cc2NC1C` (stereo not given), the suppression of toxicity in experiment [1] was found to be 0; in “PubChem AID 1597”, 1.43.

For `CC(=O)N[C@@H](CS)C(=O)O`, the suppression of toxicity in experiment [1] stood at 2.85; in the experiment “PubChem AID 1597”, 13.6.

As to `CO[C@]12C[C@@H](COC(=O)c3cncc(Br)c3)CN(C)[C@@H]1Cc1cn(C)c3cccc2c13`, the suppression of toxicity in experiment [1] amounted to 1.43; in the experiment “PubChem AID 1597”, 4.29.

Regarding `O=C(O)c1ccccc1O`, the suppression of toxicity in experiment [1] was 11.4; in “PubChem AID 1597”, 10.

Consider `COc1cc2nc(N3CCN(C(=O)c4ccco4)CC3)nc(N)c2cc1OC`, for which the suppression of toxicity in experiment [1] is 4.29; in the experiment “PubChem AID 1597”, 5.

For the compound `CN(C)CCOC(=O)COc1ccc(Cl)cc1`, the suppression of toxicity in experiment [1] amounted to 1.43; in “PubChem AID 1597” it was 5.

Take `Cn1c(=O)c2[nH]c(C3CCCC3)nc2n(C)c1=O`: the suppression of toxicity came to 0 in experiment [1] and 0.715 in the experiment “PubChem AID 1597”.

With `O=C(CCBr)N1CCN(C(=O)CCBr)CC1`, the figures for the suppression of toxicity (in experiment [1]; in the experiment “PubChem AID 1597”) were 1.43 and 2.86, respectively.

As to `OC(CCN1CCCCC1)(c1ccccc1)c1ccccc1`, the suppression of toxicity in experiment [1] was 4.29; in “PubChem AID 1597”, 7.86.

In the case of `COc1cc(OC)c2ccc(=O)oc2c1`, the suppression of toxicity in experiment [1] is 8.57; in “PubChem AID 1597”, 2.88.

Take `CCC(=O)c1c(O)cc(O)cc1O`: the suppression of toxicity came to 4.29 in experiment [1] and 0.715 in the experiment “PubChem AID 1597”.

As for `CC(C)(C)NCC(O)c1cc(O)cc(O)c1` (stereo not given), the suppression of toxicity in experiment [1] was 0; in the experiment “PubChem AID 1597”, 7.86.

On to `NNC(=O)c1ccncc1`, for which the values for the suppression of toxicity (in experiment [1]; in the experiment “PubChem AID 1597”) were 1.43 and 4.29, respectively.

Regarding `CC(=O)NCCc1c[nH]c2ccc(O)cc12`, the suppression of toxicity in experiment [1] is 0; in the experiment “PubChem AID 1597” it was 0.715.

Turning to `Cn1nnnc1SCC1=C(C(=O)O)N2C(=O)C(NC(=O)C(OC=O)c3ccccc3)C2SC1` (stereo not given), the suppression of toxicity in experiment [1] amounted to 0; in “PubChem AID 1597”, 12.9.

In the case of `CC(Oc1ccccc1)C(=O)NC1C(=O)N2C(C(=O)O)C(C)(C)S[C@H]12` (stereo not given in full), the suppression of toxicity came to 10 in experiment [1] and 17.9 in the experiment “PubChem AID 1597”.

Turning to `Cc1cc(C)nc(NS(=O)(=O)c2ccc(N)cc2)n1`, the suppression of toxicity in experiment [1] is 5.71; in “PubChem AID 1597”, 10.7.

For the compound `Cn1c(=O)c2c(ncn2C)n(C)c1=O`, the suppression of toxicity in experiment [1] was 0; in the experiment “PubChem AID 1597” it was 3.58.

On to `CCN(CC)C(C)CN1c2ccccc2Sc2ccccc21` (stereo not given), for which the suppression of toxicity stood at 5.71 in experiment [1] and 7.14 in “PubChem AID 1597”.

As for `CC(=O)N(O)CCCCCNC(=O)CCC(=O)N(O)CCCCCNC(=O)CCC(=O)N(O)CCCCCN`, the suppression of toxicity turned out to be 2.86 in experiment [1] and 10 in “PubChem AID 1597”.

Take `CC1(C)S[C@@H]2[C@H](NC(=O)COc3ccccc3)C(=O)N2[C@H]1C(=O)O`: the suppression of toxicity in experiment [1] worked out at 5.71; in the experiment “PubChem AID 1597” it was 3.58.

As to `OCCN1CCN(CCCN2c3ccccc3Sc3ccc(C(F)(F)F)cc32)CC1`, the suppression of toxicity turned out to be 2.85 in experiment [1] and 0 in “PubChem AID 1597”.
